In article PMC7862700:
The list shows a part of the results, in another mix than the full data. At the low end of the ranking the order means little.

The chains behind the UniProt entries cited, without tags or fusion partners. Where a name states a change or a piece, a line headed by the entry shows the natural chain unless it says otherwise.
UniProt Q9Y603: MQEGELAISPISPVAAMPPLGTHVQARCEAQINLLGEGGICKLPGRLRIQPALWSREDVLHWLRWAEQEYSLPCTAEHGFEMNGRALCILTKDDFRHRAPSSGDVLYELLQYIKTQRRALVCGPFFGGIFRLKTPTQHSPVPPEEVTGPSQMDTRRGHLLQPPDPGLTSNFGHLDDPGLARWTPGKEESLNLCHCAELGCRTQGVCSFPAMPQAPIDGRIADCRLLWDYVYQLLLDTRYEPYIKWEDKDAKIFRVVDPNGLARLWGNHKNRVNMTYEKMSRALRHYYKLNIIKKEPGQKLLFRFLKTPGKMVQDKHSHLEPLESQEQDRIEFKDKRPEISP
UniProt P41212: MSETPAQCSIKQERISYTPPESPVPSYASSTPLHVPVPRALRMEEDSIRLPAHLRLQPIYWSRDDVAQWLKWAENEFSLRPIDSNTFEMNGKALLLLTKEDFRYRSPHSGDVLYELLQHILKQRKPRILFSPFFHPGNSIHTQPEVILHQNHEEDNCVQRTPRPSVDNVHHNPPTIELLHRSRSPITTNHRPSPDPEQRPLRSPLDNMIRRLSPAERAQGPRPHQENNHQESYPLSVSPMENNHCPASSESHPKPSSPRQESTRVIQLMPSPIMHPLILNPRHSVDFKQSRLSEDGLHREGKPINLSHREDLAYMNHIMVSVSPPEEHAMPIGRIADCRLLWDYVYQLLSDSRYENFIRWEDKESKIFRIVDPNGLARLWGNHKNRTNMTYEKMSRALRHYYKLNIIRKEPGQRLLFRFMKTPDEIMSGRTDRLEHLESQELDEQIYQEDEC

Tests used:
Assay in all cases: DAPPL (digital affinity profiling via proximity ligation, sequencing)
Details in all cases: 10 mM Tris-HCl pH 7.5, 50 mM NaCl, 1 mM DTT, 4% glycerol, room temperature, 30 min; GST-TFs on glutathione beads, 16-mer random dsDNA library, 0.1% …; high values mean tight binding; double strand, one strand shown; scale: fold enrichment (6-mer frequency, TF over GST control)
[1] = biological target: T1, ELF3 (UniProt P78545)
T1 sequence: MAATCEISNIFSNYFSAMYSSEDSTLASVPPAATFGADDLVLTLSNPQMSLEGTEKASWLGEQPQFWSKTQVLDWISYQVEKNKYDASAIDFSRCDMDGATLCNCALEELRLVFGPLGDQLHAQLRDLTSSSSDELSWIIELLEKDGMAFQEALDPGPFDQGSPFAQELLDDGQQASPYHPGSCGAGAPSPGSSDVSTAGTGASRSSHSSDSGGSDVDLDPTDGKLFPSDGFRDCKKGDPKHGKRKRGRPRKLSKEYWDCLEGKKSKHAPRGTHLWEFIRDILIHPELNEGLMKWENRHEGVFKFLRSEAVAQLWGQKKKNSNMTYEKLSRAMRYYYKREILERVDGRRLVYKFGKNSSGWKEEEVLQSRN

[2] = biological target: ETV7 (UniProt Q9Y603)
[3] = biological target: ETV6 (UniProt P41212)

Sequence | binding signal [1] | binding signal [2] | binding signal [3]
TACGTG | 0.693 | 0.657 | 0.685
ACGGTG | 0.574 | 0.477 | 0.534
GGTGTA | 0.981 | 0.863 | 0.786
GTTGGA | 0.578 | 0.531 | 0.509
TTCGTG | 0.878 | 0.989 | 0.938
ACAGGC | 0.74 | 0.714 | 0.694
GCGAGG | 0.49 | 0.671 | 0.621
GAGGAA | 0.902 | 0.723 | 0.932
GCTCGG | 0.772 | 0.755 | 0.796
GCATAT | 0.86 | 1.08 | 0.967
AGCCGG | 0.53 | 0.678 | 0.624
TTGTGA | 0.775 | 0.78 | 0.728
GCGTAA | 0.879 | 0.898 | 0.872
CAGACC | 0.777 | 0.748 | 0.823
GGGCAA | 0.889 | 0.848 | 0.881
GATCAG | 0.79 | 0.772 | 0.744
AGGTGG | 0.627 | 0.687 | 0.604
TACAGT | 0.829 | 0.833 | 0.91
AGTGAT | 0.82 | 0.827 | 0.963
GACGAG | 0.456 | 0.49 | 0.51
TCGGAT | 0.512 | 0.468 | 0.487
GCCCAG | 0.682 | 0.791 | 0.735
CAAGGC | 0.861 | 0.867 | 0.849
GTGAAG | 0.535 | 0.589 | 0.559

Sequence | binding signal [1] | binding signal [2] | binding signal [3]
GATTGG | 0.879 | 0.779 | 0.821
CGGTCA | 0.759 | 0.894 | 0.792
CGGAGA | 0.206 | 0.26 | 0.194
AGGGCG | 0.567 | 0.626 | 0.589
GGGTCT | 0.841 | 0.918 | 0.893
GAGGTA | 0.679 | 0.769 | 0.648
GACGAT | 0.812 | 1 | 0.885
GTGTGT | 0.517 | 0.57 | 0.493
ACAACG | 0.787 | 0.942 | 0.953
GACAAC | 0.938 | 0.918 | 0.975
CGCTGA | 0.795 | 0.978 | 0.764
CGGTCC | 0.843 | 0.939 | 0.907
CAGGGT | 0.875 | 0.868 | 0.852
CGTAGT | 0.941 | 0.902 | 0.742
CGGGAC | 0.483 | 0.564 | 0.547
GGTGGA | 0.647 | 0.661 | 0.618
TGGAGG | 0.442 | 0.571 | 0.478
CGCATA | 0.812 | 0.746 | 0.78
GGGTCC | 0.683 | 0.885 | 0.779
CACGGG | 0.771 | 0.805 | 0.75
TAGTGA | 0.557 | 0.682 | 0.531
GGCGGA | 0.377 | 0.42 | 0.394
CATGGA | 0.899 | 0.876 | 0.927
GGTCGC | 0.741 | 0.745 | 0.874

Sequence | binding signal [1] | binding signal [2] | binding signal [3]
GGCCAC | 0.988 | 0.92 | 0.861
AGGGTA | 0.899 | 0.98 | 0.9
AGGTCA | 0.667 | 0.78 | 0.689
AGTCAC | 0.878 | 0.836 | 0.759
CCAGTT | 0.645 | 0.589 | 0.595
GTAGGG | 0.734 | 0.874 | 0.738
GAGCGT | 0.389 | 0.423 | 0.373
GAGGCT | 0.59 | 0.617 | 0.6
TTAGAC | 0.736 | 0.82 | 0.845
CGGTGT | 0.704 | 0.703 | 0.729
GCGGAC | 0.847 | 0.735 | 0.731
CGAGGA | 0.54 | 0.606 | 0.705
GTGATC | 0.846 | 0.793 | 0.793
TCGGGG | 0.329 | 0.481 | 0.398
GAGATG | 0.706 | 0.749 | 0.698
GGCCAA | 0.728 | 0.837 | 0.743
GAGTTT | 0.633 | 0.719 | 0.639
CCGGGA | 0.479 | 0.512 | 0.593
TCGGGC | 0.478 | 0.511 | 0.457
CGTTAG | 0.805 | 0.851 | 0.759
TATCGG | 0.847 | 0.83 | 0.778
GTCAGA | 0.662 | 0.761 | 0.664
GCGGTC | 0.768 | 0.604 | 0.71
GCCGAG | 0.583 | 0.711 | 0.675

Sequence | binding signal [1] | binding signal [2] | binding signal [3]
GTCGTA | 0.563 | 0.667 | 0.582
CAGAGC | 0.919 | 0.811 | 0.818
CCAGCC | 0.749 | 0.763 | 0.736
GCCATG | 0.823 | 0.731 | 0.777
GCCGTA | 0.679 | 0.839 | 0.845
GGAGTG | 0.348 | 0.499 | 0.388
GCATGA | 0.888 | 0.767 | 0.717
ATGGAG | 0.489 | 0.594 | 0.6
TCAGTC | 0.697 | 0.634 | 0.618
TGTCGA | 0.829 | 0.91 | 0.8
TCGTGT | 0.746 | 0.886 | 0.781
CAGGTC | 0.756 | 0.717 | 0.622
GGGATC | 0.551 | 0.616 | 0.633
CAGTTA | 0.897 | 0.788 | 0.797
AAGGGG | 0.996 | 0.894 | 0.984
TCGGAC | 0.344 | 0.394 | 0.35
GAGAGG | 0.605 | 0.599 | 0.52
CGTAAG | 0.682 | 0.741 | 0.744
TGAGGC | 0.399 | 0.552 | 0.454
GTTCGG | 0.662 | 0.621 | 0.619
AGATAC | 1.01 | 0.934 | 0.872
GCGAGA | 0.547 | 0.556 | 0.47
CGGTGA | 0.477 | 0.468 | 0.474
CCAGGT | 0.76 | 0.741 | 0.701

Laid out differently: results already given
Sequence,binding signal [1],binding signal [2],binding signal [3]
GCCATG,0.823,0.731,0.777
GCCGTA,0.679,0.839,0.845
TCAGTC,0.697,0.634,0.618
GCGAGA,0.547,0.556,0.47

(list continues)

Sequence | binding signal [1] | binding signal [2] | binding signal [3]
GCAAGG | 0.821 | 0.87 | 0.773
AGGTGA | 0.486 | 0.518 | 0.495
TTGGAG | 0.611 | 0.596 | 0.483
GAGCTA | 1.02 | 0.887 | 0.92
GTTGGG | 0.711 | 0.748 | 0.678
GGCCCA | 0.666 | 0.797 | 0.811
GTGCGT | 0.724 | 0.583 | 0.606
TCAGGT | 0.877 | 0.865 | 0.846
CGTGTC | 0.69 | 0.803 | 0.747
AGTGAA | 0.881 | 0.976 | 0.924
GCGGTG | 0.453 | 0.56 | 0.53
GACTGA | 0.781 | 0.759 | 0.754
CGAGAC | 0.592 | 0.638 | 0.579
AGTCGG | 0.139 | 0.219 | 0.146
GCGGCG | 0.791 | 0.844 | 0.928
GGCTGG | 0.501 | 0.786 | 0.791
TCGGCG | 0.489 | 0.573 | 0.491
TCGGTG | 0.484 | 0.566 | 0.574
GGGACC | 0.639 | 0.646 | 0.614
GGAGGA | 0.269 | 0.281 | 0.265
AGAGTT | 0.784 | 0.83 | 0.805
CCAGTA | 0.651 | 0.717 | 0.669
GCGTGT | 0.656 | 0.633 | 0.532
AGCGGT | 0.704 | 0.69 | 0.778

Some of the entries so far, as labelled records.
GGAGGA
  binding signal [1]: 0.269; binding signal [2]: 0.281; binding signal [3]: 0.265
AGAGTT
  binding signal [1]: 0.784; binding signal [2]: 0.83; binding signal [3]: 0.805
